Results on one molecule are retold here after patent US7348421B1, “Methods for production of p-hydroxybenzoate in bacteria” (North Carolina State University, priority 2000, dated 2008).

One assay concerns T1E pPAT7. In kind it is cell-based, Pseudomonas putida. As to conditions: gradient 0 to 50 g/L.
Assay [1] deals with Pseudomonas putida DOT-T1E (wild-type). In kind it is cell-based. As to conditions: gradient 0 to 50 g/L.

With `N[C@@H](Cc1ccc(O)cc1)C(=O)O` [Tyrosine, L-tyrosine], the “tolerance to amino acid” value in the assay with T1E pPAT7 stood at 36.5 g/L; in assay [1], 39.4 g/L.
